Assay results: US20070093415A1
These are yes or no findings as the source states them, for the method shown. Some entries that bind do so weakly or less than the wild type.

The chains behind the UniProt entries cited, without tags or fusion partners. Residues count along the entry.
UniProt P05067, residues 672-713: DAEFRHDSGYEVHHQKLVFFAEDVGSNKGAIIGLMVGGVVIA

What was measured:
[1] = biological target: Aβ amyloid in amyloid plaques of Alzheimer's disease brain (human) (UniProt P05067); experiment: staining of AD brain sections
[2] = biological target: Aβ amyloid in amyloid plaques of Alzheimer's disease brain (human) (UniProt P05067); experiment: staining of AD brain sections, FIG. 6
[3] = biological target: Aβ amyloid in amyloid plaques of Alzheimer's disease brain (human) (UniProt P05067); experiment: staining of AD brain sections with biotin peptide and streptavidin-alkaline phosphatase

Measured: binding

AECDWGKGGRWRLWPGASGKTEACGP (N-terminal biotin; the flanking cysteines can form a disulfide bond) [Biotin-…]
binds: all assays above
